From ChEMBL document CHEMBL4316593 (Eur J Med Chem, 2019)
Further values from the same series stand in other lists.

Legend:
Format in all cases: cell-based
Conditions in all cases: U-87MG ATCC
[1] = Inhibition of RTK/PI3K/AKT/mTOR signaling in human U87 cells assessed as down regulation of CLU gene expression at cytotoxic IC50 measured after 48 hrs relative to control
[2] = Inhibition of RTK/PI3K/AKT/mTOR signaling in human U87 cells assessed as down regulation of MYBL1 gene expression at cytotoxic IC50 measured after 48 hrs relative to control
[3] = Inhibition of RTK/PI3K/AKT/mTOR signaling in human U87 cells assessed as down regulation of TAF9 gene expression at cytotoxic IC50 measured after 48 hrs relative to control
[4] = Inhibition of RTK/PI3K/AKT/mTOR signaling in human U87 cells assessed as down regulation of HUS1 gene expression at cytotoxic IC50 measured after 48 hrs relative to control
[5] = Inhibition of RTK/PI3K/AKT/mTOR signaling in human U87 cells assessed as down regulation of CASP3 gene expression at cytotoxic IC50 measured after 48 hrs relative to control
[6] = Inhibition of RTK/PI3K/AKT/mTOR signaling in human U87 cells assessed as down regulation of DCTN5 gene expression at cytotoxic IC50 measured after 48 hrs relative to control
[7] = Inhibition of RTK/PI3K/AKT/mTOR signaling in human U87 cells assessed as down regulation of SLFN5 gene expression at cytotoxic IC50 measured after 48 hrs relative to control
[8] = Inhibition of RTK/PI3K/AKT/mTOR signaling in human U87 cells assessed as down regulation of PRKAB1 gene expression at cytotoxic IC50 measured after 48 hrs relative to control
[9] = Inhibition of RTK/PI3K/AKT/mTOR signaling in human U87 cells assessed as down regulation of ATG2B gene expression at cytotoxic IC50 measured after 48 hrs relative to control
[10] = Inhibition of RTK/PI3K/AKT/mTOR signaling in human U87 cells assessed as down regulation of SNN gene expression at cytotoxic IC50 measured after 48 hrs relative to control
[11] = Inhibition of RTK/PI3K/AKT/mTOR signaling in human U87 cells assessed as down regulation of RIPK2 gene expression at cytotoxic IC50 measured after 48 hrs relative to control
[12] = Inhibition of RTK/PI3K/AKT/mTOR signaling in human U87 cells assessed as down regulation of NRBF2 gene expression at cytotoxic IC50 measured after 48 hrs relative to control
[13] = Inhibition of RTK/PI3K/AKT/mTOR signaling in human U87 cells assessed as down regulation of KANSL2 gene expression at cytotoxic IC50 measured after 48 hrs relative to control
[14] = Inhibition of RTK/PI3K/AKT/mTOR signaling in human U87 cells assessed as down regulation of EDC3 gene expression at cytotoxic IC50 measured after 48 hrs relative to control
[15] = Inhibition of RTK/PI3K/AKT/mTOR signaling in human U87 cells assessed as down regulation of ATP5G3 gene expression at cytotoxic IC50 measured after 48 hrs relative to control
[16] = Inhibition of RTK/PI3K/AKT/mTOR signaling in human U87 cells assessed as down regulation of CTR9 gene expression at cytotoxic IC50 measured after 48 hrs relative to control
[17] = Inhibition of RTK/PI3K/AKT/mTOR signaling in human U87 cells assessed as down regulation of ARPC5L gene expression at cytotoxic IC50 measured after 48 hrs relative to control
[18] = Inhibition of RTK/PI3K/AKT/mTOR signaling in human U87 cells assessed as down regulation of CMAS gene expression at cytotoxic IC50 measured after 48 hrs relative to control
[19] = Inhibition of RTK/PI3K/AKT/mTOR signaling in human U87 cells assessed as down regulation of YWHAG gene expression at cytotoxic IC50 measured after 48 hrs relative to control
[20] = Inhibition of RTK/PI3K/AKT/mTOR signaling in human U87 cells assessed as down regulation of DSP gene expression at cytotoxic IC50 measured after 48 hrs relative to control
[21] = Inhibition of RTK/PI3K/AKT/mTOR signaling in human U87 cells assessed as up regulation of TMEM45A gene expression at cytotoxic IC50 measured after 48 hrs relative to control
[22] = Inhibition of RTK/PI3K/AKT/mTOR signaling in human U87 cells assessed as up regulation of DACT1 gene expression at cytotoxic IC50 measured after 48 hrs relative to control
[23] = Inhibition of RTK/PI3K/AKT/mTOR signaling in human U87 cells assessed as up regulation of beta-1,4-galactosyltransferase 2 gene expression at cytotoxic IC50 measured after 48 hrs relative to control
[24] = Inhibition of RTK/PI3K/AKT/mTOR signaling in human U87 cells assessed as up regulation of 1-acylglycerol-3-phosphate O-acyltransferase 1 gene expression at cytotoxic IC50 measured after 48 hrs relative to control
[25] = Inhibition of RTK/PI3K/AKT/mTOR signaling in human U87 cells assessed as up regulation of phosphatidylinositol-4,5-bisphosphate 3-kinase catalytic subunit delta gene expression at cytotoxic IC50 measured after 48 hrs relative to control
[26] = Inhibition of RTK/PI3K/AKT/mTOR signaling in human U87 cells assessed as up regulation of mannose receptor C type 2 gene expression at cytotoxic IC50 measured after 48 hrs relative to control
[27] = Inhibition of RTK/PI3K/AKT/mTOR signaling in human U87 cells assessed as up regulation of D-tyrosyl-tRNA deacylase 2 (putative) gene expression at cytotoxic IC50 measured after 48 hrs relative to control
[28] = Inhibition of RTK/PI3K/AKT/mTOR signaling in human U87 cells assessed as up regulation of kinesin family member 5A gene expression at cytotoxic IC50 measured after 48 hrs relative to control
[29] = Inhibition of RTK/PI3K/AKT/mTOR signaling in human U87 cells assessed as up regulation of one cut homeobox 3 gene expression at cytotoxic IC50 measured after 48 hrs relative to control
[30] = Inhibition of RTK/PI3K/AKT/mTOR signaling in human U87 cells assessed as up regulation of coiled-coil domain containing 88C gene expression at cytotoxic IC50 measured after 48 hrs relative to control
[31] = Inhibition of RTK/PI3K/AKT/mTOR signaling in human U87 cells assessed as up regulation of DET1 and DDB1 associated 1 gene expression at cytotoxic IC50 measured after 48 hrs relative to control
[32] = Inhibition of RTK/PI3K/AKT/mTOR signaling in human U87 cells assessed as up regulation of YEATS domain containing 2 gene expression at cytotoxic IC50 measured after 48 hrs relative to control

## CC(=O)C(=NNc1ccccc1C#N)C(C)=O
[1]
  log2FC: -3.32
[2]
  log2FC: -2.17
[3]
  log2FC: -1.38
[4]
  log2FC: -1.22
[5]
  log2FC: -1.21
[6]
  log2FC: -1.02
[7]
  log2FC: -0.936
[8]
  log2FC: -0.869
[9]
  log2FC: -0.842
[10]
  log2FC: -0.834
[11]
  log2FC: -0.828
[12]
  log2FC: -0.774
[13]
  log2FC: -0.751
[14]
  log2FC: -0.741
[15]
  log2FC: -0.732
[16]
  log2FC: -0.603
[17]
  log2FC: -0.6
[18]
  log2FC: -0.55
[19]
  log2FC: -0.413
[20]
  log2FC: -0.374
[21]
  log2FC: 1.91
[22]
  log2FC: 1.91
[23]
  log2FC: 1.32
[24]
  log2FC: 1.32
[25]
  log2FC: 1.13
[26]
  log2FC: 1.13
[27]
  log2FC: 1.05
[28]
  log2FC: 0.964
[29]
  log2FC: 0.868
[30]
  log2FC: 0.78
[31]
  log2FC: 0.779
[32]
  log2FC: 0.768
